Assay results published in US20190321455A1.
Results are given in words; binding and its absence hold for the method and conditions named. Some entries that bind do so weakly or less than the wild type.

Protein sequences, listed by entry. Tags and fused reporters are not part of them. Lines headed by an entry give the natural chain unless they say otherwise; changes in a name come on top.
UniProt Q15366: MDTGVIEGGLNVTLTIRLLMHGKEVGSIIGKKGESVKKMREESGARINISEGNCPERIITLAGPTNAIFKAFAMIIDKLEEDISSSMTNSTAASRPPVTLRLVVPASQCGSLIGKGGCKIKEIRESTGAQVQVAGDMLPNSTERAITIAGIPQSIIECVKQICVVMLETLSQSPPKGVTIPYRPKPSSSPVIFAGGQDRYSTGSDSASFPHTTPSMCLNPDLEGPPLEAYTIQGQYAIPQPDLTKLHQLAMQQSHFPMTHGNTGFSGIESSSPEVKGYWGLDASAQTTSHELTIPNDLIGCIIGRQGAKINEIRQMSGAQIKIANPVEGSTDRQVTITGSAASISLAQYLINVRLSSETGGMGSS
UniProt P07814: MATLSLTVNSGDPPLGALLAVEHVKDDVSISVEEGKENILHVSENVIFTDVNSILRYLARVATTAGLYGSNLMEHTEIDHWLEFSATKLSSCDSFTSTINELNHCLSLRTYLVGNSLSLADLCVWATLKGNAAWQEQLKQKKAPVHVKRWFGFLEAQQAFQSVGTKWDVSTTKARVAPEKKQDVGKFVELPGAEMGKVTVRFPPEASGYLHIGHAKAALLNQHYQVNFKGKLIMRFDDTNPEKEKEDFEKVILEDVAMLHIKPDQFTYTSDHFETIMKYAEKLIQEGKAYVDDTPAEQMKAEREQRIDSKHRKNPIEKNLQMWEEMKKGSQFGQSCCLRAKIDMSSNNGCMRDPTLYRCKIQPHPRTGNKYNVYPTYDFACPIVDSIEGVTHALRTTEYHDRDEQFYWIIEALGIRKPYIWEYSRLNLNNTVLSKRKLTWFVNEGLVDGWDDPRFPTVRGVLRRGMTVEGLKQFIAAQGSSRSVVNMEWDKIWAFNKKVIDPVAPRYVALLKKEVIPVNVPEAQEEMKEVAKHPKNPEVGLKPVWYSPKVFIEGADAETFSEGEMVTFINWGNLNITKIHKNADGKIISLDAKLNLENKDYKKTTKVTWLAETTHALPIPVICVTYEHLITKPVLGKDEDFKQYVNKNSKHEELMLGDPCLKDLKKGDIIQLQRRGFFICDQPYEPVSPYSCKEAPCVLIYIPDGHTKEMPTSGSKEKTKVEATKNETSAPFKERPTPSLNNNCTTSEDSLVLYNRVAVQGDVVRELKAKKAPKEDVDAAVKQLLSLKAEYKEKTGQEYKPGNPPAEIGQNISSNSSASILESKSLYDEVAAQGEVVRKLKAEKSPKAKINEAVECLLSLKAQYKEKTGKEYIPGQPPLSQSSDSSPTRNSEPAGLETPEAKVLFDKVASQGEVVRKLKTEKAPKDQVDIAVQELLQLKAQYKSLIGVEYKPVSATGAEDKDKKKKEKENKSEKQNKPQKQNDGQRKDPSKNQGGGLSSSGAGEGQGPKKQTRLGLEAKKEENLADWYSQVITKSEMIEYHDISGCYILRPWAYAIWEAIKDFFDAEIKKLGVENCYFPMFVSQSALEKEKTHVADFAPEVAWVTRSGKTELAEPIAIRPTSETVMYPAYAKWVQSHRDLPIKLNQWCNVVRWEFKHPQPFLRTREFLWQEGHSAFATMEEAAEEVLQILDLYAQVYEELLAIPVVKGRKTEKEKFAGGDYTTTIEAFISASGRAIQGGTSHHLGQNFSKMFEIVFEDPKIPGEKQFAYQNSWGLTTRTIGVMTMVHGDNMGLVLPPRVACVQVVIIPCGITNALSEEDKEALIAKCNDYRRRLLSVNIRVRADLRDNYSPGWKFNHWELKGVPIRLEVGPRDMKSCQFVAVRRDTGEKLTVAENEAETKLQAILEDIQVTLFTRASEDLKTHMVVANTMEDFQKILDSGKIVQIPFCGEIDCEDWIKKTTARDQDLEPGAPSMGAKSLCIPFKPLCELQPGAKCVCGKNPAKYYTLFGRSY

Molecular target: GST-PCBP2 (full-length poly(rC)-binding protein 2 expressed from a plasmid in 293T cells) (UniProt Q15366)
Assay: GST precipitation from 293T cells, anti-Strep immunoblot

For “Strep-EPRS (Strep-tagged full-length glutamyl-prolyl-tRNA synthetase, wild type) (from UniProt P07814 1-1512) (enzyme)”, the binding was “binds”.
